According to PMC10803776:
Results are given in words; binding and its absence hold for the method and conditions named. Binding seen in cells or lysates may run through a third protein. Some entries that bind do so weakly or less than the wild type.

The chains behind the UniProt entries cited, without tags or fusion partners.
UniProt P9WMT5: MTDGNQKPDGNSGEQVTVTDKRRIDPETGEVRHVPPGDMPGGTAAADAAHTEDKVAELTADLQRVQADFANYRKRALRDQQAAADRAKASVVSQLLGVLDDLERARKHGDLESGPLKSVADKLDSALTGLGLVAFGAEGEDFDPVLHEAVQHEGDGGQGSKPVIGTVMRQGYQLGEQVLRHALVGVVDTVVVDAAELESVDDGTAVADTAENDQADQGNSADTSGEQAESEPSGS

Tests used:
Assay in all cases: co-IP; ALFA-tagged bait captured on Nanobody ALFA magnetic beads from lysates of M. smegmatis CRISPRi depletion strains (ATc 50 ng/mL, 18 h); PBS, 10% glycerol, 4 mM EDTA, 4 °C, 2 h; eluates blotted with DnaK and GrpE antisera
[1] = biological target: Mtb ALFA-DnaK Mut-3 expressed in M. smegmatis (Mycobacterium tuberculosis) (UniProt P9WMJ9)
[2] = biological target: Mtb ALFA-DnaK Mut-1 expressed in M. smegmatis (Mycobacterium tuberculosis) (UniProt P9WMJ9)
[3] = biological target: Mtb ALFA-DnaK Mut-4 expressed in M. smegmatis (Mycobacterium tuberculosis) (UniProt P9WMJ9)

Measured: binding

GrpE in lysates of M. smegmatis carrying the Mtb dnaK operon (untagged) (from UniProt P9WMT5 1-235)
binds: all assays above
